Literature values as cited in patent US20210236593A1, “METHODS OF SUPPORTING WEIGHT MAINTENANCE BY DECREASING THE ACTIVITY OF FAM46A” (SOCIETE DES PRODUITS NESTLE S.A., priority 2016, published 2021).
At least one structure is not confirmed: it was looked up by name or label, or the drawing left a doubt.

Tested on: FAM46A
Conditions: effect of the chemical on FAM46A expression

With `CCC1(c2ccccc2)C(=O)NC(=O)NC1=O` [Phenobarbital] as the compound, how does the “Interaction Actions” value read?
The value was “Affects expression”.
